Experimental data as given in publication PMC10515265.
Construct, isoform or probe ends are uncertain for at least one entry. For part of these data: No signal at the amounts used counts as a negative.

Experiments:
GST-RhNAP [1] = test: competition with a labelled probe; settings: unlabeled competitor 10x to 100x against biotin probe, signal gradually weakened; LightShift chemiluminescent EMSA kit (Pierce), per manufacturer; native PAGE; 3 ug protein, 25 pM biotin probe; pH and temperature not stated; recombinant protein
GST-RhNAP [2] = test: EMSA; settings: 3 ug protein, 25 pM probe, LightShift chemiluminescent EMSA kit (Pierce), per manufacturer, native PAGE, 25 pM biotin probe, pH and temperature not stated, recombinant protein
GST = test: EMSA; settings: GST control, no band; LightShift chemiluminescent EMSA kit (Pierce), per manufacturer; native PAGE; 3 ug protein, 25 pM biotin probe; pH and temperature not stated; recombinant protein

Sequence | binding result (GST-RhNAP [1]) | binding result (GST-RhNAP [2]) | binding result (GST)
CTCATCTGATCATTCACGTGCGCAAGACATG (double strand) [RhCKX6 promoter 31-bp unlabeled competitor] | binds | – | –
CTCATCTGATCATTCACGTGCGCAAGACATG (double strand) [RhCKX6 promoter 31-bp probe (-558 to -528)] | – | binds | no binding
